# From PubChem BioAssay AID493014 (National Center for Advancing Translational Sciences (NCATS), 2011)
# Screen size: about 340,000 compounds; about 170 (0.05%) were called active. Inconclusive means that the source gave no clear call. Such entries were picked first, then a sample of the others. Calls come from the whole dose curve; as a rule, active = well fitted inhibition curve with a large enough effect in the signal ratio, with a control signal flat (not every such curve was filed as active); inconclusive = small, poorly fitted or top-dose-only effect, or effect the other way, or a change in a side signal; inactive = flat fitted curve, though single readings scatter; the % refers to the signal ratio. Potencies of inconclusive entries are doubtful fits and often do not repeat.
# Test: qHTS Assay to Find Inhibitors of Chronic Active B-Cell Receptor Signaling;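 for activity change, negative = inhibition: plate controls were basal doxycycline-induced cells for no effect and cells given 10 µM MG132 for full effect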
# Details: ABC-DLBCL IkBa-CBG/CBR reporter, luminescence ratio (green luciferase fused to IkBa over red control in TMD8 lymphoma cells), 4 h; activity change, negative = inhibition: at 46.1 µM (top of the series)
# Outline: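 Concentration-response series (up to 46 uM) were applied to TMD8 dual-reporter cells for 4 h at 37C with doxycycline. Green/red ratio, after filter-overlap correction, defined %Activity; red signal alone was normalised to basal cells and zero luminescence.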
# Potency is the fitted concentration of half-maximal effect.
SMILES,Potency,"activity change, negative = inhibition"
Cc1ccc(NC(=O)CCNS(=O)(=O)c2ccc(Br)s2)cc1,"inconclusive: 22.4 µM [falling, partial curve, poor fit]",–
CCc1cccc(NC(=O)c2cnn(-c3ccccc3)c2C)c1,"inconclusive: 35.5 µM [falling, partial curve, poor fit]",–
C=C(C)c1cccc(C(C)(C)NC(=O)Nc2ncccn2)c1,–,inconclusive: 7.41%
CCO[C@@H]1OC(C(=O)N2CCOCC2)=C[C@H](c2cn(C(C)=O)c3ccccc23)[C@H]1CCCO,–,inconclusive: -5.99%
COc1ccccc1C(=O)N1CCN(CCNC(=O)C(=O)Nc2ccc(Br)c(C)c2)CC1,–,inconclusive: -5.36%
CCCN(CC(=O)Nc1cc(Cl)cc(Cl)c1)CC(=O)Nc1ccc(F)c(F)c1F,–,inconclusive: 13.9%
Cn1cccc1/C=N/NC(=O)c1ccco1,"inconclusive: 15.8 µM [falling, single point]",–
COc1ccccc1NS(=O)(=O)c1cccc(NC(=O)c2nn(C)c(=O)c3ccccc23)c1,"inconclusive: 23.1 µM [falling, partial curve, poor fit]",–
COc1ccc(C2c3ccc(O)cc3Oc3ncn(CCN4CCOCC4)c(=N)c32)cc1 (centres undefined),"inconclusive: 11.2 µM [falling, single point]",–
CCCCCC(=O)NC(=S)Nc1ccc(N2CCOCC2)cc1,–,inconclusive: 0.716%
CCSc1ccc(-c2nn(-c3ccccc3)cc2/C=C(/C#N)C(=O)NCCCOC)cc1,–,inactive: -0.249%
CC(=O)N1CCN(C(=S)c2ccc([N+](=O)[O-])cc2)CC1,–,inconclusive: 19.7%
CCOC(=O)C1CCN(C(=O)c2cc(COc3ccc(OC)c4ccccc34)on2)CC1,"inconclusive: 5.62 µM [falling, partial curve, poor fit]",–
COc1ccc(/C=C(\NC(=O)c2ccccc2)C(=O)N/N=C/c2sccc2C)cc1,–,inactive: -0.192%
COC(=O)C(CC(C)C)N(Cc1cc(OC)cc(OC)c1)S(=O)(=O)c1ccccc1Br (centres undefined),–,inconclusive: 7.26%
Cn1nccc1C(=O)Nc1ccc(Cl)cc1,"inconclusive: 35.5 µM [falling, single point]",–
CN1CCN(C(=S)NC(=O)c2ccc(Br)cc2)CC1,"inconclusive: 35.5 µM [falling, single point]",–
Cn1nc(OC(=O)Nc2ccc(Cl)cc2)cc1C(F)(F)F,"inconclusive: 0.082 µM [rising, full curve]",–
COC(=O)c1ccc(COc2ccc(/C=C/C(=O)c3ccc(OC)c(CSCC(=O)O)c3)cc2OC)cc1,–,inconclusive: -12.7%
Cc1cc(Cl)c2oc(C(=O)N(C)Cc3nccn3C)c(C)c2c1,–,inactive: 13.3%

SMILES,Potency,"activity change, negative = inhibition"
CC1=C(C(=O)OCc2ccccc2)C(c2ccccc2Br)NC(=O)N1 (centres undefined),–,inconclusive: -14.5%
C/C=C/C(=O)OCC(=O)Nc1ccc(OC)c(OC)c1,–,inconclusive: -2.47%
COc1cccc(/C=N/NC(=O)c2cccc3ccccc23)c1,"inconclusive: 14.1 µM [falling, partial curve, poor fit]",–
CCCCCCC[N+](CC)(CC)CCCCc1ccc(Cl)cc1,–,inconclusive: -7.26%
Cc1cccc(C)c1NC(=O)NC1CC2CCC(C1)N2Cc1cccs1 (centres undefined),–,inconclusive: 0%
CCC(C)C1C(C#N)=C(N)Oc2n[nH]c(C)c21 (centres undefined),"inconclusive: 23.1 µM [falling, partial curve]",–
Cc1ccc(C)c(CN2C(=O)CSc3ccc(C(=O)NCC(C)CN4CCC(C)CC4)cc32)c1 (centres undefined),–,inconclusive: 1.59%
COC(=O)[C@]1(C)CCC[C@@]2(C)C3CC[C@@]4(C)C[C@]3(CCC21)CC(=O)N4Cc1ccc(OC)cc1 (some centres undefined),–,inconclusive: 3.48%
COc1ccc(NC(=O)/C(=C\c2ccncc2)NC(=O)c2ccccc2)cc1,"inconclusive: 15.8 µM [falling, single point]",–
Cc1ccc(/C=N/NC(=O)c2ccccn2)o1,"inconclusive: 29.1 µM [falling, single point]",–
CC(NC(=O)c1ccco1)C(=O)N1CC=C(c2ccccc2)CC1 (centres undefined),–,inconclusive: 0.837%
O=C(c1ccccc1Oc1nnnn1-c1ccccc1)N1CCOCC1,–,inconclusive: 6.61%
COc1cc(C2=NOC(C(=O)NCc3cccs3)C2)cc(OC)c1OC (centres undefined),"inconclusive: 1.46 µM [falling, full curve, poor fit]",–
Cc1ccc(C(=O)CCNc2ccc(F)c(Cl)c2)o1,–,inconclusive: 1.26%
Cc1c(CN2CCN(CC(C)(C)C)C(CCO)C2)[nH]c2ccccc12 (centres undefined),–,inactive: -7.59%
CC(C)(C)Nc1nc(-c2ccc3c(c2)CCN3C(=O)C2CC2)cs1,–,inconclusive: 0.329%
Cn1c(SCC(=O)N2CCCc3ccccc32)ncc(C(=O)Nc2ccc(F)cc2)c1=O,"inconclusive: 35.5 µM [falling, single point]",–
O=C(Nc1nc2c(s1)CCCC2)c1ccc(S(=O)(=O)N2CCCc3ccccc32)cc1,–,inactive: 8.59%
Cc1ccc(C(=O)Nc2ncc(Cc3ccc(SC(F)F)cc3)s2)cc1,"inconclusive: 8.2 µM [falling, partial curve, poor fit]",–

# Already shown: an excerpt of the list.
SMILES,Potency,"activity change, negative = inhibition"
COC(=O)C(CC(C)C)N(Cc1cc(OC)cc(OC)c1)S(=O)(=O)c1ccccc1Br (centres undefined),–,inconclusive: 7.26%
Cn1nccc1C(=O)Nc1ccc(Cl)cc1,"inconclusive: 35.5 µM [falling, single point]",–
